# Experimental data: the supplement of paper PMC8728848
# This is one part of the list.
# Assays:
# Assay in all cases: glycan array binding signal (z-score within array); higher = stronger binding
# Conditions in all cases: glycan notation: IUPAC condensed, linker removed
# [1] = target: GlcNAc6S(b1-3)Gal(b1-4)GlcNAc
# Outline: (§1)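 Negative Z-scores can be read as non-binding. The Z-score is calculated within each array and then averaged across arrays of one protein sequence at different concentrations or buffers and across linkers. Arrays, 3228 in all, were curated from the Consortium for Functional Glycomics database and kept only where the protein sequence was available.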
# Kdn(a2-3)Gal(b1-3)GalNAc = target: Kdn(a2-3)Gal(b1-3)GalNAc
# Outline: as §1
# Kdn(a2-3)Gal(b1-3)GlcNAc = target: Kdn(a2-3)Gal(b1-3)GlcNAc
# Outline: as §1
# Kdn(a2-3)Gal(b1-4)Glc = target: Kdn(a2-3)Gal(b1-4)Glc
# Outline: as §1
# Kdn(a2-3)Gal(b1-4)GlcNAc = target: Kdn(a2-3)Gal(b1-4)GlcNAc
# Outline: as §1
# [2] = target: Kdn(a2-3)Gal(b1-4)[Fuc(a1-3)]GlcNAc
# Outline: as §1
# Kdn(a2-6)Gal(b1-4)GlcNAc = target: Kdn(a2-6)Gal(b1-4)GlcNAc
# Outline: as §1
# [3] = target: Man(a1-2)Man(a1-2)Man(a1-3)Man
# Outline: as §1
# [4] = target: Man(a1-2)Man(a1-2)Man(a1-6)[Man(a1-3)]Man
# Outline: as §1
# Man(a1-2)Man(a1-3)Man = target: Man(a1-2)Man(a1-3)Man
# Outline: as §1
# [5] = target: Man(a1-2)Man(a1-3)[Man(a1-2)Man(a1-6)]Man
# Outline: as §1
# [6] = target: Man(a1-2)Man(a1-3)[Man(a1-2)Man(a1-6)]Man(a1-6)[Man(a1-2)Man(a1-2)Man(a1-3)]Man
# Outline: as §1
# [7] = target: Man(a1-2)Man(a1-3)[Man(a1-2)Man(a1-6)]Man(a1-6)[Man(a1-2)Man(a1-2)Man(a1-3)]Man(b1-4)GlcNAc(b1-4)GlcNAc
# Outline: as §1
# [8] = target: Man(a1-2)Man(a1-3)[Man(a1-6)]Man(a1-6)[Man(a1-2)Man(a1-3)]Man(b1-4)GlcNAc(b1-4)GlcNAc
# Outline: as §1
# [9] = target: Man(a1-2)Man(a1-6)[Man(a1-3)]Man(a1-6)[Man(a1-2)Man(a1-2)Man(a1-3)]Man
# Outline: as §1
# [10] = target: Man(a1-2)Man(a1-6)[Man(a1-3)]Man(a1-6)[Man(a1-2)Man(a1-2)Man(a1-3)]Man(b1-4)GlcNAc(b1-4)GlcNAc
# Outline: as §1
# Man(a1-3)[Man(a1-6)]Man = target: Man(a1-3)[Man(a1-6)]Man
# Outline: as §1
# [11] = target: Man(a1-3)[Man(a1-6)]Man(a1-6)[Man(a1-2)Man(a1-3)]Man(b1-4)GlcNAc(b1-4)GlcNAc
# Outline: as §1
# [12] = target: Man(a1-3)[Man(a1-6)]Man(a1-6)[Man(a1-3)]Man
# Outline: as §1
# [13] = target: Man(a1-3)[Man(a1-6)]Man(a1-6)[Man(a1-3)]Man(b1-4)GlcNAc(b1-4)GlcNAc
# Outline: as §1
# [14] = target: Man(a1-3)[Man(a1-6)]Man(b1-4)GlcNAc(b1-4)GlcNAc
# Outline: as §1
# Man(a1-6)Man = target: Man(a1-6)Man
# Outline: as §1
# Man(b1-4)GlcNAc = target: Man(b1-4)GlcNAc
# Outline: as §1
# Neu5Ac(a2-3)Gal = target: Neu5Ac(a2-3)Gal
# Outline: as §1
# [15] = target: Neu5Ac(a2-3)Gal(b1-3)GalNAc
# Outline: as §1
# [16] = target: Neu5Ac(a2-3)Gal(b1-3)GalNAc(b1-3)Gal(a1-4)Gal(b1-4)Glc
# Outline: as §1
# [17] = target: Neu5Ac(a2-3)Gal(b1-3)GalNAc(b1-4)[Neu5Ac(a2-3)]Gal(b1-4)Glc
# Outline: as §1
# [18] = target: Neu5Ac(a2-3)Gal(b1-3)GalNAc6S
# Outline: as §1
# [19] = target: Neu5Ac(a2-3)Gal(b1-3)GlcNAc
# Outline: as §1
# [20] = target: Neu5Ac(a2-3)Gal(b1-3)GlcNAc(b1-2)Man(a1-3)[Neu5Ac(a2-3)Gal(b1-3)GlcNAc(b1-2)Man(a1-6)]Man(b1-4)GlcNAc(b1-4)GlcNAc
# Outline: as §1
# [21] = target: Neu5Ac(a2-3)Gal(b1-3)GlcNAc(b1-3)Gal(b1-3)GlcNAc
# Outline: as §1
# [22] = target: Neu5Ac(a2-3)Gal(b1-3)GlcNAc(b1-3)Gal(b1-4)GlcNAc
# Outline: as §1
# [23] = target: Neu5Ac(a2-3)Gal(b1-3)GlcNAc(b1-3)GalNAc
# Outline: as §1
# [24] = target: Neu5Ac(a2-3)Gal(b1-3)GlcNAc6S
# Outline: as §1
# [25] = target: Neu5Ac(a2-3)Gal(b1-3)[Fuc(a1-4)]GlcNAc
# Outline: as §1
# [26] = target: Neu5Ac(a2-3)Gal(b1-3)[Fuc(a1-4)]GlcNAc(b1-3)Gal(b1-3)[Fuc(a1-4)]GlcNAc
# Outline: as §1
# [27] = target: Neu5Ac(a2-3)Gal(b1-3)[Fuc(a1-4)]GlcNAc(b1-3)Gal(b1-4)[Fuc(a1-3)]GlcNAc
# Outline: as §1
# [28] = target: Neu5Ac(a2-3)Gal(b1-3)[Neu5Ac(a2-3)Gal(b1-4)]GlcNAc
# Outline: as §1
# [29] = target: Neu5Ac(a2-3)Gal(b1-3)[Neu5Ac(a2-6)]GalNAc
# Outline: as §1
# Neu5Ac(a2-3)Gal(b1-4)Glc = target: Neu5Ac(a2-3)Gal(b1-4)Glc
# Outline: as §1
# [30] = target: Neu5Ac(a2-3)Gal(b1-4)GlcNAc
# Outline: as §1
# [31] = target: Neu5Ac(a2-3)Gal(b1-4)GlcNAc(b1-2)Man(a1-3)[GlcNAc(b1-2)Man(b1-4)GlcNAc(b1-2)Man(a1-6)]Man(b1-4)GlcNAc(b1-4)GlcNAc
# Outline: as §1
# [32] = target: Neu5Ac(a2-3)Gal(b1-4)GlcNAc(b1-2)Man(a1-3)[Neu5Ac(a2-6)Gal(b1-4)GlcNAc(b1-2)Man(a1-6)]Man(b1-4)GlcNAc(b1-4)GlcNAc
# Outline: as §1
# [33] = target: Neu5Ac(a2-3)Gal(b1-4)GlcNAc(b1-3)Gal(b1-3)GlcNAc
# Outline: as §1
# [34] = target: Neu5Ac(a2-3)Gal(b1-4)GlcNAc(b1-3)Gal(b1-4)GlcNAc
# Outline: as §1
# [35] = target: Neu5Ac(a2-3)Gal(b1-4)GlcNAc(b1-3)Gal(b1-4)GlcNAc(b1-3)Gal(b1-4)GlcNAc
# Outline: as §1
# [36] = target: Neu5Ac(a2-3)Gal(b1-4)GlcNAc(b1-3)Gal(b1-4)[Fuc(a1-3)]GlcNAc
# Outline: as §1
# [37] = target: Neu5Ac(a2-3)Gal(b1-4)GlcNAc(b1-3)GalNAc
# Outline: as §1
# [38] = target: Neu5Ac(a2-3)Gal(b1-4)GlcNAc(b1-6)[Gal(b1-3)]GalNAc
# Outline: as §1
# [39] = target: Neu5Ac(a2-3)Gal(b1-4)GlcNAc(b1-6)[Neu5Ac(a2-3)Gal(b1-3)]GalNAc
# Outline: as §1
# [40] = target: Neu5Ac(a2-3)Gal(b1-4)GlcNAc6S
# Outline: as §1
# [41] = target: Neu5Ac(a2-3)Gal(b1-4)[Fuc(a1-3)]GlcNAc
# Outline: as §1
# [42] = target: Neu5Ac(a2-3)Gal(b1-4)[Fuc(a1-3)]GlcNAc(b1-3)Gal
# Outline: as §1
# [43] = target: Neu5Ac(a2-3)Gal(b1-4)[Fuc(a1-3)]GlcNAc(b1-3)Gal(b1-4)GlcNAc
# Outline: as §1
# [44] = target: Neu5Ac(a2-3)Gal(b1-4)[Fuc(a1-3)]GlcNAc(b1-3)Gal(b1-4)[Fuc(a1-3)]GlcNAc(b1-3)Gal(b1-4)[Fuc(a1-3)]GlcNAc
# Outline: as §1
binder,measurement,setting,value
"LERP (Drosophila melanogaster), B7Z0Q8 (protein) MRCSLQKDCAAPTQENFRQMRFPIVISLLLLLFCSGESVAADAANQLKFSTTECKLKEPIYGSTFDFSGLHSDLAHVVKSMNIGGDQFEFNICGNLSRTCNGESNVAACLKRQGKEYILGRQHELFYNNGNMFLKYKSGAKCDNGTADKPNYQLHVMFSCDYTLDAQPMHVTPYANEVCSFYISYRTPLACLSIPEGLQSNSCRVGDTKSNGTFDLMPLSDSNYHTSNRQGAFFVINVCKPVLYGENSMCPAGSSVCLFDSKATNPKERFINFGNVQTHPVVEKGQLLLRHESPTPCAKNSSANYTSVIYFSCDKFIRNAHPEFAGLGADSCTYQFNFATPLACNDLKPCTAFTSTNELLDLSSLSSKPARTLLKDGKNYTIAVCAHAGAPCQENGGACYEQNSTTISLGNSNSQLRFNQTGSLYLLYEDGAECSTATGMRRWSTKIEFVCANNATKDNGASTAGGSDSLKIIEDSNCQLLIQYQTPLACREPIRCKATTYVDHTNDGLGSSGDELIDLTPLISATDNYEARVELPASMEHLVPKTTKFFLNVCRPLVPKYQLGCAGGSAACMAKVTAAGAPEEERSMGFPLVSLTQRNRTFAELAYLKGDPCPTDNTSELSTHILFNCNMRAGRGQPVLRSVEDCAYRFEWETNVFCPPHECTFSADTCDLVHDELGRRFNFKSAPFTKDGKIEIDYNATKMSVNICGAHRKAMTDYSQALVNIFFTHESPNCGREGTMNVQIRLICSDQTESSSTISSDQQCNLLYVQRTPSICEFLSLGATQQNFESNGSTSSSTSSSSTSTTTSTTTQASPAGKPTKAATSTTTTTVGPDPAATPIGPTASVGTILGAILSVTFCVTCLGLLAFSPARRQRIRRLFRRSNSAVRYSRVQSNEEANLLLEPNGEFTESDDDMLL",glycan array binding signal (z-score),[1],0.193
same,glycan array binding signal (z-score),Kdn(a2-3)Gal(b1-3)GalNAc,-0.203
same,glycan array binding signal (z-score),Kdn(a2-3)Gal(b1-3)GlcNAc,-0.084
same,glycan array binding signal (z-score),Kdn(a2-3)Gal(b1-4)Glc,0.317
same,glycan array binding signal (z-score),Kdn(a2-3)Gal(b1-4)GlcNAc,-0.819
same,glycan array binding signal (z-score),[2],-0.158
same,glycan array binding signal (z-score),Kdn(a2-6)Gal(b1-4)GlcNAc,-0.144
same,glycan array binding signal (z-score),[3],5.38
same,glycan array binding signal (z-score),[4],-0.549
same,glycan array binding signal (z-score),Man(a1-2)Man(a1-3)Man,-0.182
same,glycan array binding signal (z-score),[5],-0.358
same,glycan array binding signal (z-score),[6],-0.61
same,glycan array binding signal (z-score),[7],-0.353
same,glycan array binding signal (z-score),[8],-0.137
same,glycan array binding signal (z-score),[9],-0.378
same,glycan array binding signal (z-score),[10],-0.533
same,glycan array binding signal (z-score),Man(a1-3)[Man(a1-6)]Man,-0.079
same,glycan array binding signal (z-score),[11],-0.031
same,glycan array binding signal (z-score),[12],-0.364
same,glycan array binding signal (z-score),[13],-0.593
same,glycan array binding signal (z-score),[14],2.66
same,glycan array binding signal (z-score),Man(a1-6)Man,-0.091
same,glycan array binding signal (z-score),Man(b1-4)GlcNAc,0.006
same,glycan array binding signal (z-score),Neu5Ac(a2-3)Gal,-0.653
same,glycan array binding signal (z-score),[15],0.949
same,glycan array binding signal (z-score),[16],-0.045
same,glycan array binding signal (z-score),[17],-0.493
same,glycan array binding signal (z-score),[18],-0.584
same,glycan array binding signal (z-score),[19],2.14
same,glycan array binding signal (z-score),[20],-0.331
same,glycan array binding signal (z-score),[21],-0.319
same,glycan array binding signal (z-score),[22],-0.135
same,glycan array binding signal (z-score),[23],-1.17
same,glycan array binding signal (z-score),[24],-0.16
same,glycan array binding signal (z-score),[25],-0.364
same,glycan array binding signal (z-score),[26],0.907
same,glycan array binding signal (z-score),[27],0.187
same,glycan array binding signal (z-score),[28],-0.204
same,glycan array binding signal (z-score),[29],0.859
same,glycan array binding signal (z-score),Neu5Ac(a2-3)Gal(b1-4)Glc,-0.727
same,glycan array binding signal (z-score),[30],0.617
same,glycan array binding signal (z-score),[31],0.008
same,glycan array binding signal (z-score),[32],-0.274
same,glycan array binding signal (z-score),[33],-0.699
same,glycan array binding signal (z-score),[34],0.53
same,glycan array binding signal (z-score),[35],-1.11
same,glycan array binding signal (z-score),[36],-0.338
same,glycan array binding signal (z-score),[37],0.38
same,glycan array binding signal (z-score),[38],0.326
same,glycan array binding signal (z-score),[39],-0.813
same,glycan array binding signal (z-score),[40],0.734
same,glycan array binding signal (z-score),[41],-1.2
same,glycan array binding signal (z-score),[42],0.892
same,glycan array binding signal (z-score),[43],0.149
same,glycan array binding signal (z-score),[44],-0.598

# Reprinted at random: two entries already listed, in no set order.
binder,measurement,setting,value
"LERP (Drosophila melanogaster), B7Z0Q8 (protein) MRCSLQKDCAAPTQENFRQMRFPIVISLLLLLFCSGESVAADAANQLKFSTTECKLKEPIYGSTFDFSGLHSDLAHVVKSMNIGGDQFEFNICGNLSRTCNGESNVAACLKRQGKEYILGRQHELFYNNGNMFLKYKSGAKCDNGTADKPNYQLHVMFSCDYTLDAQPMHVTPYANEVCSFYISYRTPLACLSIPEGLQSNSCRVGDTKSNGTFDLMPLSDSNYHTSNRQGAFFVINVCKPVLYGENSMCPAGSSVCLFDSKATNPKERFINFGNVQTHPVVEKGQLLLRHESPTPCAKNSSANYTSVIYFSCDKFIRNAHPEFAGLGADSCTYQFNFATPLACNDLKPCTAFTSTNELLDLSSLSSKPARTLLKDGKNYTIAVCAHAGAPCQENGGACYEQNSTTISLGNSNSQLRFNQTGSLYLLYEDGAECSTATGMRRWSTKIEFVCANNATKDNGASTAGGSDSLKIIEDSNCQLLIQYQTPLACREPIRCKATTYVDHTNDGLGSSGDELIDLTPLISATDNYEARVELPASMEHLVPKTTKFFLNVCRPLVPKYQLGCAGGSAACMAKVTAAGAPEEERSMGFPLVSLTQRNRTFAELAYLKGDPCPTDNTSELSTHILFNCNMRAGRGQPVLRSVEDCAYRFEWETNVFCPPHECTFSADTCDLVHDELGRRFNFKSAPFTKDGKIEIDYNATKMSVNICGAHRKAMTDYSQALVNIFFTHESPNCGREGTMNVQIRLICSDQTESSSTISSDQQCNLLYVQRTPSICEFLSLGATQQNFESNGSTSSSTSSSSTSTTTSTTTQASPAGKPTKAATSTTTTTVGPDPAATPIGPTASVGTILGAILSVTFCVTCLGLLAFSPARRQRIRRLFRRSNSAVRYSRVQSNEEANLLLEPNGEFTESDDDMLL",glycan array binding signal (z-score),[25],-0.364
same,glycan array binding signal (z-score),[30],0.617
